Source: publication PMC3724847
These are yes or no findings as the source states them, for the method shown. In cells and extracts the contact can be indirect. Some binding calls cover weakened binding; strength is not graded here. Tags and fused reporters may be left off the sequences shown.

Protein sequences, listed by entry. Tags and fused reporters are not part of them. Lines headed by an entry give the natural chain unless they say otherwise; changes in a name come on top.
UniProt Q14160: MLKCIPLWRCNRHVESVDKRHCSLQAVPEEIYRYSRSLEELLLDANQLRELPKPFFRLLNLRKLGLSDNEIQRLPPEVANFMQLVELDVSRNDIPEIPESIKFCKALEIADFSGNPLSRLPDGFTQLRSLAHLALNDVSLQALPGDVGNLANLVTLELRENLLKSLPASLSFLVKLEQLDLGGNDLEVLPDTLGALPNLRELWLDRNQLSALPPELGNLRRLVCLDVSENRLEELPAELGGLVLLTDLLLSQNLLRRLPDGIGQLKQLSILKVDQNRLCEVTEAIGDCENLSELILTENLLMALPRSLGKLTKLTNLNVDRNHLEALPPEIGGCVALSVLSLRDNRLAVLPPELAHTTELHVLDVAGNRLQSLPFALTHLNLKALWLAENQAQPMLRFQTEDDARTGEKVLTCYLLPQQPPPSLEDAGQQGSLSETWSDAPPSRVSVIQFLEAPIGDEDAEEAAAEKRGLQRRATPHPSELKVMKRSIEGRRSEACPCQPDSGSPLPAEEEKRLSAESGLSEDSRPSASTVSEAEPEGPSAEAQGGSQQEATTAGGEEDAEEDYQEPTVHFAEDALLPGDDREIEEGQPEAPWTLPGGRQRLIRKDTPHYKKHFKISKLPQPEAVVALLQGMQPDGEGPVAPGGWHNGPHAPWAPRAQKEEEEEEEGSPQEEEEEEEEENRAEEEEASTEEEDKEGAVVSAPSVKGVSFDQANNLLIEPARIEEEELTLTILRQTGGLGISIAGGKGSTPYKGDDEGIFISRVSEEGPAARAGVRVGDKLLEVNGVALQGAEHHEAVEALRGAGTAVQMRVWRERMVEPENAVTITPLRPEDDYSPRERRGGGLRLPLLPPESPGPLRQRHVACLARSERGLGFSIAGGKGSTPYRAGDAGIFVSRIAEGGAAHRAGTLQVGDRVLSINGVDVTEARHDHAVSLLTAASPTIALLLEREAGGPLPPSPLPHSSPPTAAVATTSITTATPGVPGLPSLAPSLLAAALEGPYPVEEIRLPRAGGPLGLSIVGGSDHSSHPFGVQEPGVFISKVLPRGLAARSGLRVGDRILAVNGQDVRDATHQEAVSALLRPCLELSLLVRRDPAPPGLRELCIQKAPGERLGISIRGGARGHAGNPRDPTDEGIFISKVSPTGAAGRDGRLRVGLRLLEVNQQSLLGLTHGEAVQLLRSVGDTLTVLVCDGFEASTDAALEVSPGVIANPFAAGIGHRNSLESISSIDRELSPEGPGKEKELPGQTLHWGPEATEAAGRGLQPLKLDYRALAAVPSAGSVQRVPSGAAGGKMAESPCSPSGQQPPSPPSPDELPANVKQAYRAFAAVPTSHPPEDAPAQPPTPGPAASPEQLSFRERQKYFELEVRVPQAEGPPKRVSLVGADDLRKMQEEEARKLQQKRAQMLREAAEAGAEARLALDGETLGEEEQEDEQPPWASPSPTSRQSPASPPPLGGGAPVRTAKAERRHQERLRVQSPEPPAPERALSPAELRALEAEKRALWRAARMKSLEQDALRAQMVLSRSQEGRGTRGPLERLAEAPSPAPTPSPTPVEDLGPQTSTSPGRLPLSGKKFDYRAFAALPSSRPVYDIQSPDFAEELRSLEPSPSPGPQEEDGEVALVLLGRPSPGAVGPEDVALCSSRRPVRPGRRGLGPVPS

Biological target: T1, HA-VANGL2 (hemagglutinin-tagged VANGL2) (UniProt Q9ULK5)
T1 sequence: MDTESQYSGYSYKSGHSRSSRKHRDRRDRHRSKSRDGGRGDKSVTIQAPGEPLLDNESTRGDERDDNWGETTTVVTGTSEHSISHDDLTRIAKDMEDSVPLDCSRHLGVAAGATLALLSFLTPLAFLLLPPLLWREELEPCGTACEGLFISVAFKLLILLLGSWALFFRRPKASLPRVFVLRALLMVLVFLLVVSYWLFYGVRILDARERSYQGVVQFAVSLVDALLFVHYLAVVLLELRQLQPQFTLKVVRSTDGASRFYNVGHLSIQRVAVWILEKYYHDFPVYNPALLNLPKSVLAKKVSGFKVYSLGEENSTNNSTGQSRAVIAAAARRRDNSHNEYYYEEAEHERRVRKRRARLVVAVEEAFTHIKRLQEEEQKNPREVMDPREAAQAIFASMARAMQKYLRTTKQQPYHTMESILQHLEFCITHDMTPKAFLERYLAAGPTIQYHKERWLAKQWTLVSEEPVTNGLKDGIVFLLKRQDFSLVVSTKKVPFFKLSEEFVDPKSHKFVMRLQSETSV
Test: co-IP; HEK293T cells co-transfected with GFP-SCRIB (or mutant) and HA-VANGL2, lysed 24 h later in 1% NP-40 buffer; HA immunoprecipitation (Pierce HA Tag IP/Co-IP Kit), blot with anti-GFP and anti-HA

Substance	binding
GFP-SCRIB p.A366T (from UniProt Q14160 1-1655)	binds
GFP-SCRIB p.A1315T (from UniProt Q14160 1-1655)	binds
GFP-SCRIB p.L1520R (from UniProt Q14160 1-1655)	binds
GFP-SCRIB p.P1043L (from UniProt Q14160 1-1655)	binds
GFP-SCRIB p.P1332L (from UniProt Q14160 1-1655)	binds
GFP-SCRIB p.T552M (from UniProt Q14160 1-1655)	binds
GFP-SCRIB wild type (human SCRIB full-length cDNA in pEGFP-C1) (from UniProt Q14160 1-1655)	binds
